Consider one molecule from patent US20110313018A1.

This assay addresses T1, 3xFLAG-PBK/TOPK (pCAGGSn3F-PBK/TOPK, expressed in HEK293 cells) (human) (UniProt Q96KB5).
T1 sequence: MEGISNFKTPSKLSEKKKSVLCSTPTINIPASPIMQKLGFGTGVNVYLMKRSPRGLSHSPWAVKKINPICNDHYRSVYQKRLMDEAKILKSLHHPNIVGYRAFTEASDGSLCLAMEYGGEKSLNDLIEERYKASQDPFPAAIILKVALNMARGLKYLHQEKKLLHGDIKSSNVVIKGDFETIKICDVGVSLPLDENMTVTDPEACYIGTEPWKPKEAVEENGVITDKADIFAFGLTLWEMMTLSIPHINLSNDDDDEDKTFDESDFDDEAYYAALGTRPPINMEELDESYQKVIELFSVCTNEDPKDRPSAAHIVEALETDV
As to the kind of experiment: co-immunoprecipitation with anti-HA agarose from co-transfected HEK293 cells, western blot. (In western blotting, separated proteins are transferred to a membrane and probed.)

These are yes or no findings as the source states them, for the method shown. Binding seen in cells or lysates may run through a third protein. Some binding calls cover weakened binding; strength is not graded here. Sequences can lack the tags named with a protein.

B1: HA-LGN/GPSM2 (pCAGGSnHA-LGN/GPSM2, N-terminal HA tag, expressed in HEK293 cells) (protein, not shown: small tags and cut ends)
chain: MREDHSFHVRYRMEASCLELALEGERLCKSGDCRAGVSFFEAAVQVGTEDLKTLSAIYSQLGNAYFYLHDYAKALEYHHHDLTLARTIGDQLGEAKASGNLGNTLKVLGNFDEAIVCCQRHLDISRELNDKVGEARALYNLGNVYHAKGKSFGCPGPQDVGEFPEEVRDALQAAVDFYEENLSLVTALGDRAAQGRAFGNLGNTHYLLGNFRDAVIAHEQRLLIAKEFGDKAAERRAYSNLGNAYIFLGEFETASEYYKKTLLLARQLKDRAVEAQSCYSLGNTYTLLQDYEKAIDYHLKHLAIAQELNDRIGEGRACWSLGNAYTALGNHDQAMHFAEKHLEISREVGDKSGELTARLNLSDLQMVLGLSYSTNNSIMSENTEIDSSLNGVLPKLGRRHSMENMELMKLTPEKVQNWNSEILAKQKPLIAKPSAKLLFVNRLKGKKYKTNSSTKVLQDASNSIDHRIPNSQRKISADTIGDEGFFDLLSRFQSNRMDDQRCCLQEKNCHTASTTTSSTPPKMMLKTSSVPVVSPNTDEFLDLLASSQSRRLDDQRASFSNLPGLRLTQNSQSVLSHLMTNDNKEADEDFFDILVKCQGSRLDDQRCAPPPATTKGPTVPDEDFFSLILRSQGKRMDEQRVLLQRDQNRDTDFGLKDFLQNNALLEFKNSGKKSADH
Take B1: the binding result is listed as “binds”.
